Results from one PubChem assay

Source: PubChem BioAssay AID1224904 (Broad Institute, 2016).

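293T-iDUX4 dual-reporter cells; luminescence of the tet-on Italica luciferase control is read after 24 h.
The test concentration is not given here.
Percent change in the Italica control signal; more negative values mean stronger inhibition, which points to nonspecific, tet-on or cytotoxic effects.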

Values are in %.
Common to all entries: measured here: Italica tet-on control reporter.
Part of the compounds only, not a random draw; the main read-out is not listed here.

{"compound": "Cc1ccc(S(=O)(=O)N2CC[C@@H]3[C@@H](CO)Nc4ccc(-c5cccc(C(=O)N(C)C)c5)cc4[C@@H]32)cc1", "activity change (%)": "-65.52"}
{"compound": "O=C(C[C@@H]1CC[C@H]2[C@@H](COC[C@H](O)CN2CCc2ccccc2)O1)NCc1ccc(Oc2ccccc2)cc1", "activity change (%)": "-13.43"}
{"compound": "COc1ccc(C#Cc2ccc([C@@H]3[C@H]4CN(C(=O)Nc5ccccc5)CCCCN4[C@H]3CO)cc2)cc1", "activity change (%)": "-81.81"}
{"compound": "O=C(CC1CC1)N1[C@H](CO)[C@@H](c2ccccc2)C12CN(Cc1cc(F)ccc1F)C2", "activity change (%)": "-14.59"}
{"compound": "COc1ccccc1CNC(=O)C[C@H]1CC[C@@H]2[C@H](COC[C@H](O)CN2Cc2cccc(-c3ccncc3)c2)O1", "activity change (%)": "-25.05"}
{"compound": "CO[C@@H]1CN(C)C(=O)c2cc(NC(=O)Nc3ccc(Cl)c(Cl)c3)ccc2OC[C@H](C)NC[C@H]1C", "activity change (%)": "-29.6"}
{"compound": "C[C@H]1CN([C@@H](C)CO)C(=O)CCCn2cc(nn2)CO[C@H]1CN(C)Cc1ccc(C(=O)Nc2ccccc2N)cc1", "activity change (%)": "-1.405"}
{"compound": "Cc1ccc(S(=O)(=O)N2C[C@@H]3N[C@H](C2)C3c2ccc(-c3ccncc3)cc2)cc1", "stereo": "stereo partly drawn", "activity change (%)": "-32.15"}
{"compound": "O=C(C[C@H]1C[C@@H]2c3cc(NC(=O)Nc4ccccc4F)ccc3O[C@@H]2[C@@H](CO)O1)NCc1ccc(Oc2ccccc2)cc1", "activity change (%)": "-33.81"}
{"compound": "COc1ccc2c3c(n(C)c2c1)[C@H](CO)N(C(=O)C1CCCCC1)CC31CCN(C(=O)Nc2cccc(F)c2)CC1", "activity change (%)": "-15.88"}
{"compound": "C[C@@H](NC(=O)C[C@@H]1CC[C@H]2[C@@H](COC[C@@H](O)CN2C(=O)Nc2cc(Cl)cc(Cl)c2)O1)c1ccccc1", "activity change (%)": "-8.002"}
{"compound": "O=C(c1ccccc1F)N1CC[C@@H]2[C@H](CO)Nc3ccc(-c4cccc(F)c4)cc3[C@@H]21", "activity change (%)": "8.658"}
{"compound": "COc1ccccc1CN1CC[C@@H]2[C@H](CO)Nc3ccc(-c4cccc(F)c4)cc3[C@@H]21", "activity change (%)": "-9.391"}
{"compound": "CCC(=O)N1C[C@@H](C)[C@H](OC)CN(C)C(=O)c2cc(NC(=O)Nc3ccc(Cl)cc3)ccc2OC[C@H]1C", "activity change (%)": "-9.121"}
{"compound": "C[C@H]1CN([C@@H](C)CO)C(=O)CCCn2nncc2CO[C@H]1CN(C)Cc1ccc(Cl)c(Cl)c1", "activity change (%)": "-24.36"}
{"compound": "COc1cccc(CN2CCC3(CC2)CN(C(=O)C2CC2)[C@@H](CO)c2[nH]c4cc(OC)ccc4c23)c1", "activity change (%)": "-72.78"}
{"compound": "C[C@H](CO)N1C[C@H](C)[C@H](CN(C)C(=O)Nc2cccc(C(F)(F)F)c2)OCc2ccccc2-c2c(n(C)c3ccccc23)C1=O", "activity change (%)": "-87.76"}
{"compound": "O=C(C[C@H]1C[C@H]2c3cc(NS(=O)(=O)c4ccc(F)cc4)ccc3O[C@H]2[C@H](CO)O1)N1CCCCC1", "activity change (%)": "-8.243"}
{"compound": "O=C(Nc1ccc(F)cc1)N1CC(=O)N2[C@H](CO)[C@@H](c3ccc(C#Cc4ccccc4)cc3)[C@@H]2C1", "activity change (%)": "-7.957"}
{"compound": "O=C(c1ccncc1)N1CC(=O)N2[C@H](CO)[C@H](c3ccc(C#CCC4CCCC4)cc3)[C@H]2C1", "activity change (%)": "-19.82"}
{"compound": "COc1ccccc1CNC(=O)C[C@H]1CC[C@@H]2[C@H](COC[C@@H](O)CN2Cc2cccc(-c3ccncc3)c2)O1", "activity change (%)": "-27.25"}
{"compound": "O=C(CC1CC1)N1CC(=O)N2[C@H](C1)[C@@H](c1ccc(C#Cc3ccc(F)cc3)cc1)[C@@H]2CO", "activity change (%)": "-18.48"}
{"compound": "COc1ccc2c3c([nH]c2c1)[C@@H](CO)N(C(=O)c1ccccc1)CC31CCN(C(=O)NC(C)C)CC1", "activity change (%)": "-11.85"}
{"compound": "Cc1ccc(-c2ccc([C@H]3[C@@H](CO)N4C(=O)CN(C(=O)c5ccc(F)cc5)C[C@H]34)cc2)cc1", "activity change (%)": "-15.29"}
{"compound": "C/C=C/c1ccc([C@H]2[C@H]3CN(S(=O)(=O)c4ccc(OC)cc4)CCCCN3[C@H]2CO)cc1", "activity change (%)": "-18.7"}
{"compound": "CC(C)CC#Cc1ccc([C@@H]2[C@@H](CO)N3C(=O)CN(C(=O)c4ccc5c(c4)OCO5)C[C@H]23)cc1", "activity change (%)": "-9.458"}
{"compound": "COc1ccccc1C#Cc1ccc([C@@H]2[C@H](CO)N3CCCCN(C(=O)C4CCC4)C[C@@H]23)cc1", "activity change (%)": "-45.55"}
{"compound": "O=C(C[C@@H]1CC[C@@H]2[C@H](COC[C@H](O)CN2CCC(F)(F)F)O1)N1CCC(Cc2ccccc2)CC1", "activity change (%)": "-10.2"}
{"compound": "O=C(C[C@H]1CC[C@H]2[C@@H](COC[C@H](O)CN2C(=O)Nc2ccc(C(F)(F)F)cc2)O1)NCC1CCCCC1", "activity change (%)": "-12.31"}
{"compound": "C[C@@H]1CN([C@H](C)CO)C(=O)c2c(c3ccccc3n2C)-c2ccccc2CO[C@H]1CN(C)S(=O)(=O)c1ccc(C(F)(F)F)cc1", "activity change (%)": "-43.52"}
{"compound": "C[C@@H](NC(=O)C[C@@H]1CC[C@H]2[C@@H](COC[C@H](O)CN2C(=O)Nc2cc(Cl)cc(Cl)c2)O1)c1ccccc1", "activity change (%)": "-18.74"}
{"compound": "CN1c2ccc(-c3cccc(C#N)c3)cc2[C@@H]2[C@@H](CCN2C(=O)c2cccc(F)c2)[C@@H]1CO", "activity change (%)": "-31.13"}
{"compound": "O=C(C[C@@H]1CC[C@@H]2[C@H](COC[C@H](O)CN2Cc2nccs2)O1)NCc1ccc(Oc2ccccc2)cc1", "activity change (%)": "-27.36"}

Once more, the final 3:

Compound	activity change (%)
C[C@@H](NC(=O)C[C@@H]1CC[C@H]2[C@@H](COC[C@H](O)CN2C(=O)Nc2cc(Cl)cc(Cl)c2)O1)c1ccccc1	-18.74
CN1c2ccc(-c3cccc(C#N)c3)cc2[C@@H]2[C@@H](CCN2C(=O)c2cccc(F)c2)[C@@H]1CO	-31.13
O=C(C[C@@H]1CC[C@@H]2[C@H](COC[C@H](O)CN2Cc2nccs2)O1)NCc1ccc(Oc2ccccc2)cc1	-27.36